Some of the results follow. Shown are side measurements of this screen, not its main read-out; they come without a call. The list favours compounds with an active or inconclusive main result. Potencies come from curve fits of mixed quality, noted in brackets.
Test: qHTS Assay to Find Inhibitors of Chronic Active B-Cell Receptor Signaling
Conditions: ABC-DLBCL IkBa-CBG/CBR reporter, luminescence ratio (green luciferase fused to IkBa over red control in TMD8 lymphoma cells), 4 h
Summary of the method: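 TMD8 human ABC-DLBCL cells with doxycycline-inducible IκBα–green luciferase fusion and unfused red luciferase, in 0.5% FBS medium; compounds up to 46 uM, 4 h at 37C. Green/red luminescence ratio, filter-overlap corrected, fitted to concentration-response curves.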

[1] = measured here: CBR red luminescence, cell number
[2] = measured here: IkBa-CBG green luminescence

COc1ccc(N2CCN(C3CCCN(C(=O)CCN4CCCCO4)C3)CC2)cc1 (configuration not stated)
AC50 [1]: 22.4 µM [rising, single point]

COc1ccc(/C=c2\s/c(=C\C(=O)C(C)(C)C)[nH]c2=O)cc1O
AC50 [1]: 5.62 µM [rising, single point]

c1cncc(-c2noc(-c3cccc4ccccc34)n2)c1
AC50 [1]: 0.411 µM [rising, full curve, poor fit]

COc1cc(C)c(C(C)C)cc1S(=O)(=O)n1cnc(C)c1
AC50 [1]: 29.1 µM [rising, single point]
AC50 [2]: 23.1 µM [falling, single point]

CN(C)S(=O)(=O)c1ccc(Oc2ccccc2)cc1
AC50 [1]: 16.4 µM [rising, single point]

O=C(NC(=S)N1CCCCCC1)c1ccccc1Cl
AC50 [1]: 31.6 µM [rising, single point]
AC50 [2]: 20 µM [falling, single point]

CS(=O)(=O)N(Cc1ccccc1)c1ccccc1C(=O)N1CCN(c2ccccc2)CC1
AC50 [1]: 1.84 µM [falling, partial curve, poor fit]

CCC(=O)NC(Nc1nc(C)cs1)(C(=O)OC)C(F)(F)F (configuration not stated)
AC50 [1]: 29.1 µM [rising, single point]

Cc1ccc(NC(=O)CSc2nc3ccccc3c(=O)n2CCCC(=O)NCCCN2CCOCC2)cc1
AC50 [1]: 0.631 µM [falling, full curve, poor fit]

COc1ccc(C2CC(C(F)(F)F)n3ncc(C(=O)Nc4cccc(O)c4)c3N2)cc1OC (configuration not stated)
AC50 [1]: 35.5 µM [rising, single point]

Cc1ccc(-c2nc(SCC(N)=O)c(C#N)c3c2CCCC3)cc1
AC50 [1]: 0.461 µM [rising, partial curve, poor fit]

O=C(/C=C/c1cc2ccccc2o1)c1ccccc1O
AC50 [1]: 35.5 µM [falling, single point]

CC(C)(C)c1cc2nc(N)nc(N)n2n1
AC50 [1]: 3.16 µM [rising, single point]

O=C1N[C@@H](Cc2c[nH]c3ccccc23)COC(=O)[C@H](Cc2ccc(F)cc2)C/C=C\C[C@H]1CC(=O)N(CCO)Cc1ccccc1
AC50 [1]: 29.1 µM [falling, single point]

COc1ccc(CCNC(=O)c2cnc3scc(C)n3c2=O)cc1OC
AC50 [2]: 4.61 µM [falling, full curve, poor fit]

COC(=O)c1ccsc1NC(=O)CCS(=O)(=O)c1ccccc1
AC50 [1]: 4.47 µM [falling, partial curve]

Cc1cc(C)c2nc3sc(C(=O)N4CCOCC4)c(N)c3cc2c1
AC50 [1]: 1.78 µM [rising, partial curve, poor fit]
AC50 [2]: 1.26 µM [falling, full curve, poor fit]

Cc1ccc(N=C/C(C(=O)C(F)(F)F)=C(\O)c2cccs2)cc1
AC50 [1]: 35.5 µM [falling, single point]

COc1ccccc1NC(=O)Nc1nnc(CC(=O)Nc2ccccc2C)s1
AC50 [1]: 15.8 µM [falling, partial curve, poor fit]

O=C(COC(=O)[C@@H]1CC(O)CN1S(=O)(=O)c1ccc2c(c1)OCCO2)Nc1cc(F)ccc1F (some centres not stated)
AC50 [1]: 5.8 µM [rising, full curve, poor fit]

O=C(CCc1ccc(S(=O)(=O)N2CCOCC2)cc1)Nc1ccc2ccccc2c1
AC50 [1]: 32.6 µM [falling, single point]

CC1CCCN(S(=O)(=O)c2coc(C(N)=O)c2)C1 (configuration not stated)
AC50 [1]: 2.31 µM [rising, partial curve]

O=C(/C=C/c1cn(-c2ccccc2)nc1-c1cccnc1)N1CCCCC1
AC50 [1]: 22.4 µM [falling, partial curve, poor fit]

O=C(CSc1nnc(-c2ccncc2)o1)NCc1ccccc1Cl
AC50 [1]: 29.1 µM [falling, single point]

CCC1CCC(NC2CCCCNC2=O)CC1 (configuration not stated)
AC50 [1]: 6.51 µM [falling, single point]

CCCCNC(=O)Nc1ccccc1C(=O)NCCC
AC50 [1]: 7.31 µM [rising, partial curve]

Cc1cccc(N=N/C(=C\O)C(=O)c2ccc(Br)cc2)c1
AC50 [1]: 3.55 µM [rising, full curve, poor fit]

CCN(CC)CCCNC(=O)c1cc2c(=O)n(CC)c3ccccc3c2s1
AC50 [1]: 10 µM [falling, single point]

CCOc1cccc(OCCCCN2CCOCC2)c1
AC50 [1]: 3.55 µM [rising, single point]

COc1cc(C(=O)NNC(=S)NC(=O)c2ccc(Cl)cc2)cc(OC)c1OC
AC50 [1]: 29.1 µM [rising, single point]
AC50 [2]: 23.1 µM [falling, single point]

O=C(CCN1C(=O)/C(=C/c2ccccc2F)SC1=S)N[C@@H](CO)Cc1ccccc1
AC50 [1]: 2.82 µM [falling, partial curve, poor fit]

CC1=C(C(=O)c2ccccc2)C(c2cn(-c3ccccc3)nc2-c2ccc(Cl)cc2)NC(=S)N1 (configuration not stated)
AC50 [1]: 22.4 µM [rising, single point]

O=C(N/C(=C/c1cccs1)C(=O)N1CCOCC1)c1ccccc1
AC50 [1]: 2.51 µM [falling, full curve, poor fit]

COc1ccc(CN(C)C(=O)Cc2c[nH]c3ccccc23)cc1
AC50 [1]: 6.31 µM [rising, single point]

COc1ccc(CCN2CC(C(=O)O)CC2=O)cc1OC (configuration not stated)
AC50 [1]: 32.6 µM [rising, partial curve, poor fit]

COc1cc(C(=O)N/N=C/c2ccc(OC(=O)N3CCOCC3)cc2)cc(OC)c1OC
AC50 [2]: 29.1 µM [falling, single point]

CCOC(=O)[C@H]1[C@H]2COc3ccc(Cl)cc3[C@@H]2N2C(=O)CN(Cc3ccc(Cl)cc3)C(=O)[C@@]12C
AC50 [1]: 32.6 µM [falling, single point]

O=C(NC1CCCCC1)C1CCN(S(=O)(=O)c2cccc3nonc23)CC1
AC50 [1]: 3.16 µM [rising, full curve, poor fit]

Cn1c(=O)c2c(nc(N3CCN(c4ccc([N+](=O)[O-])cc4)CC3)n2C)n(C)c1=O
AC50 [1]: 4.47 µM [falling, full curve, poor fit]

Cc1cc2sc(NC(=O)c3ccco3)nc2cc1Cl
AC50 [1]: 0.794 µM [falling, full curve, poor fit]

COC(=O)c1sccc1NC(=O)Cn1nnc(-c2ccccc2C)n1
AC50 [1]: 3.16 µM [falling, full curve, poor fit]

CCn1nc(C)c(CNC(=O)c2cc(COc3cncc(Cl)c3)on2)c1C
AC50 [1]: 35.5 µM [rising, single point]

CCCCC[C@H](O)/C=C/[C@@H]1[C@@H](C/C=C\CCCC(=O)O)[C@@H](O)C[C@H]1O
AC50 [1]: 1.03 µM [rising, full curve]
AC50 [2]: 3.66 µM [falling, full curve]

Cn1cccc1-c1cc(C(=O)N/N=C/c2ccc(F)cc2)[nH]n1
AC50 [1]: 6.31 µM [falling, full curve, poor fit]

CC(C)OCCCNC(=O)c1cccc(NC(=O)c2ccccc2)c1
AC50 [1]: 0.651 µM [rising, partial curve, poor fit]

Cc1ccccc1OCC(=O)OCC(=O)N1CCCc2ccccc21
AC50 [1]: 1.46 µM [rising, full curve, poor fit]

O=C(Nc1ccc2[nH]c3c(c2c1)CCCC3)c1ccco1
AC50 [1]: 7.31 µM [rising, single point]

C=CCNC(=O)c1ccc(OC2CCN(S(=O)(=O)N(C)C)CC2)cc1
AC50 [1]: 35.5 µM [rising, single point]

Cc1ccc(C(=O)O/N=C(\N)c2ccc(Br)cc2)cc1
AC50 [1]: 6.51 µM [falling, full curve, poor fit]

Cc1ccc(-c2nnc(SCC(=O)NC3CCCc4ccccc43)n2N)cc1 (configuration not stated)
AC50 [1]: 29.1 µM [falling, single point]

COc1ccc(-c2nc3sc(CCNC(=O)C(=O)Nc4ccc(OC)c(OC)c4)c(C)n3n2)cc1
AC50 [1]: 12.6 µM [rising, single point]

O=C(Cc1ccccc1)NCC(=O)N1CCCCC1
AC50 [1]: 28.2 µM [falling, partial curve, poor fit]

COc1cccc(C(=O)NNC(=O)C(=O)Nc2ccc(C)cc2)c1
AC50 [1]: 11.2 µM [falling, partial curve, poor fit]

[O-]/C(=C(\C(=S)Nc1ccc(Cl)cc1)[n+]1ccccc1)c1ccc(OC(F)F)cc1
AC50 [1]: 7.94 µM [falling, partial curve, poor fit]

Cc1ccc([C@H]2C(C(=O)O)=CC[C@@H](c3ccc(Cl)c(Cl)c3)N2S(=O)(=O)c2ccc(C)cc2)cc1
AC50 [1]: 20.6 µM [falling, single point]

COCCNC(=S)N(CCc1c(C)[nH]c2ccc(Cl)cc12)Cc1cccnc1
AC50 [1]: 35.5 µM [falling, single point]

COCCn1nnnc1SCC(=O)c1ccccc1
AC50 [1]: 0.092 µM [rising, full curve, poor fit]

Cc1cc(/C=C2\SC(=Nc3ccc(F)cc3)NC2=O)c(C)n1-c1ccc(S(N)(=O)=O)cc1
AC50 [1]: 5.17 µM [falling, full curve]

CC(C)=NNc1nc(-c2ccc([N+](=O)[O-])cc2)cs1
AC50 [1]: 1.26 µM [rising, full curve, poor fit]

COc1cc2c(C#N)c(N3CCCC3)nc(N)c2c(N)n1
AC50 [1]: 0.178 µM [falling, full curve, poor fit]

CC1=NN(C(N)=S)C(=O)C1N=Nc1cccc(Cl)c1 (configuration not stated)
AC50 [2]: 2.82 µM [falling, single point]

COc1ccc(/C=N/NC(=S)Nc2ccccc2)cc1COc1ccccc1F
AC50 [1]: 20.6 µM [rising, partial curve]

From PubChem BioAssay AID493014 (National Center for Advancing Translational Sciences (NCATS), 2011)
